# Measured values as given in PubChem BioAssay AID504467 (National Center for Advancing Translational Sciences (NCATS), 2011).
# Screen size: about 330,000 compounds; about 7,700 (2.3%) were called active. Inconclusive means that the source gave no clear call. Such entries were picked first, then a sample of the others. The call rests on the fitted dose curve; in most records, active means well fitted inhibition curve with a large enough effect; inconclusive means small, poorly fitted or top-dose-only effect, or effect the other way; inactive means flat fitted curve, though single readings scatter. Potencies beside an inconclusive call are fits to weak or partial responses and may not hold up.
# Assay: qHTS screen for small molecules that inhibit ELG1-dependent DNA repair in human embryonic kidney (HEK293T) cells expressing luciferase-tagged ELG1; further: nearly all actives have a fitted effect of over 55% in size
# Details: HEK293T ELG1-luciferase reporter, luminescence, 16 h, DNA damage induced by 5-fluorouridine; series mostly up to 46.1 µM
# Method in brief: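 Quantitative HTS, concentration-response format. 2,000 cells/well co-treated with 5-fluorouridine and compound, 16 hr in 5% CO2 at 37 °C; ONE-Glo luminescence read after 30 min.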
# Potency means the concentration at half of the fitted maximal effect.
row,Compound,Potency
1,COc1ccc(-c2c(C)n([O-])c(C)c(C)[n+]2=O)cc1OC,inactive
2,C=C(C)C(=O)Nc1cccc(C2=NOC3(C2)C[C@@H](C(N)=O)N(C(=O)c2ccc(OC)cc2)C3)c1 (stereo partly specified),"inconclusive: 4.61 µM [inhibitor, partial curve, poor fit]"
3,C=CCn1c(-c2ccc3ncccc3c2)n[nH]c1=S,inactive
4,O=C(Nc1c(C(=O)N2CCOCC2)oc2ccccc12)c1cccc([N+](=O)[O-])c1,"inconclusive: 16.4 µM [inhibitor, partial curve, poor fit]"
5,Cc1cc2c3c(c1)C(C)CC(C)(C)N3C(=O)C2=O (stereo unspecified),inactive
6,COc1ccc(CNC(=O)CN(C(=O)c2snc(C(N)=O)c2N)c2ccccc2F)cc1,inactive
7,Cc1ccccc1-c1nc(C#N)c(N2CCC(C)CC2)o1,"inconclusive: 29.1 µM [activator, partial curve, poor fit]"
8,Cc1ccsc1C(=O)OCC(=O)c1ccc(OC(F)F)cc1,"inconclusive: 20.6 µM [activator, single point]"
9,CCOC(=O)c1ccc(NC(=O)c2cccc(S(=O)(=O)N3c4ccccc4CC3C)c2)s1 (stereo unspecified),active: 20.6 µM
10,Cc1cc2ncn(CCOc3ccccc3)c2cc1C,"inconclusive: 18.4 µM [activator, partial curve]"
11,COc1ccc(-n2c(C)nc(N)c2C(=O)c2ccccc2)cc1,"inconclusive: 2.06 µM [inhibitor, partial curve, poor fit]"
12,CCOc1nc(NC(=O)NC(=O)c2ccccc2)nc(-c2ccccc2)n1,"inconclusive: 20.6 µM [activator, single point]"
13,Oc1ccc(-c2nc3ccccn3c2NCc2ccco2)cc1,"inconclusive: 29.1 µM [activator, single point]"
14,C/C(=N\NC(=O)c1c(-c2ccccc2Cl)noc1C)c1cccc(NC(=O)C(C)C)c1,"inconclusive: 10.3 µM [inhibitor, partial curve]"
15,CCc1ccc(C(=O)CN2C(=O)NC3(CCCCCC3)C2=O)cc1,"inconclusive: 11.6 µM [activator, partial curve]"
16,CCn1c(=O)n(CC(=O)Nc2cc(OC)c(OC)c(OC)c2)c(=O)c2ccccc21,"inconclusive: 18.4 µM [activator, partial curve, poor fit]"
17,COc1ccc(-c2nc3ccccc3c(=O)n2NC(=S)N(C)C)cc1,inactive
18,CCn1c2ccc(C)cc2c2nnc(NN)nc21,"inconclusive: 25.9 µM [inhibitor, partial curve]"
19,O=C(NCc1ccco1)c1cc2nc(-c3ccc4c(c3)OCO4)cc(C(F)(F)F)n2n1,"inconclusive: 35.5 µM [inhibitor, single point]"
20,O=C1CCCC(=O)C1=C1SCCCS1,inactive
21,C=CCNc1nc(Nc2ccc(OC)cc2OC)nc(OCC)n1,"inconclusive: 25.9 µM [inhibitor, single point]"
22,Cc1ccccc1CN(C)C(C)C(=O)Nc1ccccc1F (stereo unspecified),"inconclusive: 23.1 µM [inhibitor, partial curve]"
23,COc1cc(NC(=O)CSc2nnc(NC(C)C)s2)cc(OC)c1OC,"inconclusive: 16.4 µM [inhibitor, partial curve, poor fit]"
24,COc1ccc(CN2CCN(C(C)C(=O)NC(C)c3ccc(F)cc3)CC2)cc1F (stereo unspecified),"inconclusive: 29.1 µM [inhibitor, single point]"

row,Compound,Potency
1,CCn1c(SCc2ccccc2)nnc1-c1ccc(S(=O)(=O)N2CCCCC2)cc1,"inconclusive: 29.1 µM [inhibitor, single point]"
2,Cc1c(NC(=O)c2cccnc2Cl)c(=O)n(-c2ccccc2)n1C,inactive
3,COc1ccc(CCNC(=O)CS(=O)(=O)c2cn(CC(=O)N3CCCC3)c3ccccc23)cc1OC,inactive
4,COc1ccc(NC(=O)/C=C/c2cccc(F)c2)cn1,"inconclusive: 2.06 µM [activator, full curve]"
5,Oc1ccccc1-c1cc(C(F)(F)C(F)F)nc(-c2ccccc2)n1,inactive
6,COc1ccc(C2=NNC(c3ccco3)=Nc3ccc(F)cc32)cc1,"inconclusive: 20.6 µM [inhibitor, partial curve, poor fit]"
7,Cc1ccc(NC(=O)[C@H](NC(=O)[C@@H]2Cc3ccccc3CN2)c2ccccc2)cc1C,"inconclusive: 20.6 µM [activator, single point]"
8,Clc1ccc2nc(CSc3ccccc3)cn2c1,"inconclusive: 1.46 µM [activator, full curve]"
9,O=C1Nc2ccc(S(=O)(=O)NCCCO)c3cccc1c23,"inconclusive: 20.6 µM [activator, partial curve, poor fit]"
10,FC(F)Oc1cccc(NC(=S)N2CCN(c3ccccn3)CC2)c1,inactive
11,CN(C)c1ccc(C(C(=O)NC2CCCCC2)N(Cc2ccco2)C(=O)c2snc(C(N)=O)c2N)cc1 (stereo unspecified),"inconclusive: 11.6 µM [inhibitor, partial curve]"
12,O=C(COC(=O)c1cccc(O)c1)c1ccccc1,"inconclusive: 20 µM [activator, partial curve, poor fit]"
13,COc1ccc(-n2c(C)c(C(C)=O)c3cc(OC(C)=O)ccc32)cc1,active: 0.82 µM
14,N#CCCN(Cc1cccnc1)S(=O)(=O)c1ccc(S(=O)(=O)NC2CCCCC2)cc1,"inconclusive: 23.1 µM [inhibitor, single point]"
15,c1ccc2nc(-c3nc4ccccc4[nH]3)ccc2c1,"inconclusive: 0.461 µM [activator, partial curve]"
16,Cc1ccc(CNC(=O)CN2CCN(c3ccc(F)cc3)CC2)cc1,inactive
17,CCSc1nc2c(c(=O)[nH]c(=O)n2C)n1CC(O)COc1ccccc1C (stereo unspecified),active: 16.4 µM
18,COc1ccccc1C=NNC(=O)c1ccccc1OCCOc1ccccc1,"inconclusive: 5.17 µM [inhibitor, single point]"
19,Cc1cccc(N2CCN(CC(=O)N(C3CCCC3)C3CCS(=O)(=O)C3)CC2)c1C (stereo unspecified),inactive
20,COc1ccc(CC(=O)Nc2cccc(-c3csc(C)n3)c2)cc1,"inconclusive: 32.6 µM [inhibitor, partial curve, poor fit]"
21,COC(=O)CC(CP(=O)(O)CN(C)C=O)C(=O)OC (stereo unspecified),inactive
22,Cc1cc(C(=O)CN2C(=O)NC(C)(c3cccc(Br)c3)C2=O)c(C)n1Cc1ccco1 (stereo unspecified),"inconclusive: 29.1 µM [inhibitor, single point]"
23,CCOC(=O)C1CCCN(CC(O)COCc2ccccc2OC)C1 (stereo unspecified),inactive
24,CCCOc1ccccc1OCC(=O)Nc1cc(Cl)ccc1-n1cncn1,"inconclusive: 9.2 µM [inhibitor, single point]"

# Retrieved by compound from above:
row,Compound,Potency
15,c1ccc2nc(-c3nc4ccccc4[nH]3)ccc2c1,"inconclusive: 0.461 µM [activator, partial curve]"
5,Cc1cc2c3c(c1)C(C)CC(C)(C)N3C(=O)C2=O (stereo unspecified),inactive
19,Cc1cccc(N2CCN(CC(=O)N(C3CCCC3)C3CCS(=O)(=O)C3)CC2)c1C (stereo unspecified),inactive
14,N#CCCN(Cc1cccnc1)S(=O)(=O)c1ccc(S(=O)(=O)NC2CCCCC2)cc1,"inconclusive: 23.1 µM [inhibitor, single point]"
10,FC(F)Oc1cccc(NC(=S)N2CCN(c3ccccn3)CC2)c1,inactive

# Two entries from above, with tabs:
row	Compound	Potency
3	COc1ccc(CCNC(=O)CS(=O)(=O)c2cn(CC(=O)N3CCCC3)c3ccccc23)cc1OC	inactive
16	Cc1ccc(CNC(=O)CN2CCN(c3ccc(F)cc3)CC2)cc1	inactive

# The list continues.

row,Compound,Potency
1,Cc1c(N=N/C(C(=O)Nc2ccccc2)=C(/O)c2ccccc2)c(=O)n(-c2ccccc2)n1C,"inconclusive: 16.4 µM [inhibitor, partial curve, poor fit]"
2,Cc1cc(-c2n[nH]c(=S)n2/N=C/C(Br)=C/c2ccccc2)n[nH]1,"inconclusive: 29.1 µM [inhibitor, single point]"
3,S=C(NCCc1ccccc1)NN=C1CCCCCC1,"inconclusive: 5.17 µM [activator, full curve]"
4,O=C(CCc1ccccc1)c1nnc(-c2ccccc2)o1,"inconclusive: 14.6 µM [activator, partial curve, poor fit]"
5,CCOc1cc(-c2nc3ccccc3s2)ccc1O,"inconclusive: 14.6 µM [activator, partial curve]"
6,COc1ccc(CCNC(=O)CC2C(=O)NCCN2CC(C)(C)C)cc1 (stereo unspecified),inactive
7,c1ccc(-c2nc(-c3ccco3)n3ccccc23)cc1,inactive
8,CCCCC(=O)Nc1ccc(NCc2ccc(C)s2)cc1,inactive
9,Cc1cc(N/N=C/c2ccc(N(C)C)cc2)nc(NCc2ccccc2)n1,"inconclusive: 32.6 µM [inhibitor, single point]"
10,Cn1cccc1-c1nc2ccc(NC(=O)c3ccccc3)cc2[nH]1,"inconclusive: 18.4 µM [activator, single point]"
11,CC(=O)c1c(C(C)=O)c(C)n(-c2nc(-c3ccc(C)c(C)c3)c(C)s2)c1C,"inconclusive: 20.6 µM [inhibitor, single point]"
12,O=C(NC1CCCC1)c1cc(-c2ccc(Cl)c(Cl)c2)on1,"inconclusive: 23.1 µM [activator, partial curve]"
13,CN(C)c1ccc(-c2noc(C3CCN(C(=O)Nc4ccc(Cl)cc4)CC3)n2)cc1,"inconclusive: 7.3 µM [inhibitor, partial curve, poor fit]"
14,Cc1c(Cl)cn2c(=O)cc(CN3CCN(c4ccccc4)CC3)nc2c1Cl,inactive
15,O=C(Nc1nnc(-c2ccc(F)cc2)o1)c1cc(Cl)sc1Cl,"inconclusive: 32.6 µM [activator, single point]"
16,COC(=O)c1cc(S(=O)(=O)NCc2cccs2)c[nH]1,inactive
17,COc1ccc(NS(=O)(=O)c2cccc3cccnc23)cc1Cl,inactive
18,Cc1nn(C(C)C(=O)NC2CCC(C)CC2)c(=O)c2nn(-c3ccccc3)c(C)c12 (stereo unspecified),"inconclusive: 14.6 µM [activator, partial curve]"
19,COc1ccc(/C=C2\CCc3ccccc3C2=O)cc1O,"inconclusive: 5.8 µM [activator, full curve]"
20,CC(OC(=O)c1cccc(-n2cnnn2)c1)C(=O)Nc1cccc(Cl)c1 (stereo unspecified),inactive
21,COc1ccc(NS(=O)(=O)c2c(F)cccc2F)cc1S(=O)(=O)N1CCOCC1,inactive
22,COc1ccc(-c2csc(N(CCCN(C)C)C(=O)c3ccc(Br)cc3)n2)cc1,inactive
23,COc1ccc(-c2cn3nc(SCC(=O)NC4CCCCC4)ccc3n2)cc1,"inconclusive: 1.3 µM [activator, full curve]"
